Results are given in words; binding and its absence hold for the method and conditions named. In cells and extracts the contact can be indirect. These calls come from enrichment with a bait or labelling near it, and not all partners need be listed. Sequences can lack the tags named with a protein.
Molecular target: T1, dTBCE-GFP (Drosophila melanogaster tubulin-binding co-factor E, C-terminal GFP fusion), stable S2 cell line (Drosophila melanogaster) (UniProt A1Z6J5)
T1 sequence: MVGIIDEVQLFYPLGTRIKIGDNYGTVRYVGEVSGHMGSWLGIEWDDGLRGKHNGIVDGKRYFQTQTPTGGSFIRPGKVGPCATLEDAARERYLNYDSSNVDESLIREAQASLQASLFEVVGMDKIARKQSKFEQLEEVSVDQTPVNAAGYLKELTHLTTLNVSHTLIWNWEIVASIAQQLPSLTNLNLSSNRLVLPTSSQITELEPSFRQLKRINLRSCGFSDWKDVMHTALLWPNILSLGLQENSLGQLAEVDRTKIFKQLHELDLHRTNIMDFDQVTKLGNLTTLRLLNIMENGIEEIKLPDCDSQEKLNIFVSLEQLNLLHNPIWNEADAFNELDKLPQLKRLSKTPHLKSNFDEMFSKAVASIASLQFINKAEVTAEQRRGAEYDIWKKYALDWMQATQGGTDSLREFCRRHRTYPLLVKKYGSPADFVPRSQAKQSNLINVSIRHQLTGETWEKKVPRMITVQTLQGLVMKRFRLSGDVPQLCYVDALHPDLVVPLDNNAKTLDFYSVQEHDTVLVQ
Experiment: affinity purification with mass spectrometry

## Ran (from UniProt Q9VZ23 1-216)
  binding: binds

From article doi:10.1101/2020.01.21.912428
